Source: PubChem BioAssay AID662 (National Center for Advancing Translational Sciences (NCATS), 2007)
The other results are listed elsewhere or left out. The main result of the screen is listed elsewhere. These columns were measured beside it and carry no call. Compounds called inactive in the main read-out are mostly missing here. Words in brackets tell the shape of the fitted curve; partial curves, single points and poor fits give uncertain potencies.

Assay: Cell signaling CRE-BLA (Fsk stim)
Conditions: CHO CRE-bla reporter (cAMP response element driving beta-lactamase), forskolin EC10, beta-lactamase ratio; measured here: 460 nm blue channel
In short: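 Modulation of forskolin-driven signalling is measured in CHO cells carrying a CRE-controlled beta-lactamase reporter. Cells are stimulated with EC10 NKH 477 in the presence of titrated compound for 3 h at 37 °C, then loaded with CCF4 for 2 h at room temperature.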

SMILES | AC50
Cc1nn(-c2ccccc2)c2sc(C(=O)N(Cc3ccco3)C(C)C(=O)NC(C)(C)C)cc12 (configuration not stated) | 1.58 µM [rising, partial curve]
CCc1cccc2nc3c(c([Si](CC)(CC)CC)c12)Cn1c-3cccc1=O | 10 µM [rising, partial curve]
O=S1(=O)c2cccc3cccc(c23)N1Cc1ccc(-c2nnco2)cc1 | 12.6 µM [rising, single point]
COc1ccc(N2CCN(Cc3nc4c(c(=O)n(C)c(=O)n4C)n3Cc3ccccc3C)CC2)cc1 | 10 µM [rising, partial curve]
CCOC(=O)c1c(NC(=O)CCC(=O)NCc2ccco2)sc2c1CCCC2 | 20 µM [rising, single point]
O=C(NC1CC1)C1CCCN(C(=O)Nc2ccc(F)cc2)C1 (configuration not stated) | 25.1 µM [falling, single point]
COc1ccc2c(C=Nc3c(C)n(C)n(-c4ccccc4)c3=O)c(O)n(Cc3ccco3)c(=O)c2c1 | 2.51 µM [rising, full curve]
COCCn1c(C)cc(C(=O)COC(=O)c2c(C)nn(Cc3ccccc3)c2C)c1C | 0.158 µM [falling, partial curve]
COc1ccc(C(=O)Cn2nnc(-c3ccccc3-n3cnnn3)n2)cc1 | 1.58 µM [falling, partial curve, poor fit]
C=CCOc1nc(N(C)C)nc(N(C)C)n1 | 12.6 µM [rising, single point]
O=C(NC1CCCCCC1)c1cccs1 | 0.00398 µM [falling, full curve]
CCOc1ccc(N(CC(=O)N2CCN(c3ccccc3)CC2)S(=O)(=O)c2c(C)noc2C)cc1 | 12.6 µM [falling, single point]
Cc1ccc(-n2c(SCC(=O)Nc3ccc4cn[nH]c4c3)nnc2-c2ccco2)cc1 | 25.1 µM [rising, single point]
Fc1cccc(Cl)c1-c1nnc2ccc(N3CCOCC3)nn12 | 3.98 µM [rising, partial curve]
c1ccc(-c2csc3ncn4cnnc4c23)cc1 | 1.58 µM [rising, full curve, poor fit]
Cc1cc(NC(=O)CCS(=O)(=O)c2nc(-c3ccccc3)cc(C(F)(F)F)n2)no1 | 10 µM [falling, partial curve]
O=C(NCc1ccco1)c1cccn2c(=O)c3sccc3nc12 | 12.6 µM [rising, partial curve, poor fit]
Cc1noc(NS(=O)(=O)c2ccc(NC(=O)CCn3c(=O)oc4ccccc43)cc2)c1C | 0.794 µM [falling, full curve]
CCC(=O)N1c2ccc(S(=O)(=O)CCC(=O)Nc3nccs3)cc2CC1C (configuration not stated) | 0.1 µM [falling, full curve, poor fit]
Cn1c(=O)[nH]c(=O)c2c1nc(NCCCO)n2CCCc1ccccc1 | 12.6 µM [rising, single point]
COc1ccc(-c2cc(C(=O)Nc3ccc(C)cc3)no2)cc1 | 0.126 µM [falling, full curve, poor fit]
Cc1noc(NS(=O)(=O)c2ccc(NC(=O)CCC3CCCCC3)cc2)c1C | 25.1 µM [falling, single point]
N#CC1=C(SCC(=O)NC23CC4CC(CC(C4)C2)C3)NC(=O)C(C#N)C12CCCCC2 (configuration not stated) | 25.1 µM [falling, single point]

SMILES | AC50
CN1/C(=C\C(=O)c2cccs2)Sc2ccccc21 | 10 µM [rising, partial curve]
Nc1ccnc(C(F)(F)F)c1C(=O)c1ccccc1 | 0.0316 µM [falling, full curve, poor fit]
Cc1ccc2nc(-c3ccc(SCC(=O)Nc4cc(C)on4)nc3)[nH]c2c1 | 12.6 µM [rising, single point]
CC(C)c1cc(C(=O)NCc2cccnc2)no1 | 0.501 µM [falling, full curve, poor fit]
CC(C)(C)c1cc(/C=C(\C#N)C(N)=S)cc(C(C)(C)C)c1O | 5.01 µM [falling, full curve]
Cc1cc(-c2ccccc2)nc2cc(C(N)=O)nn12 | 25.1 µM [rising, single point]
CCc1cccc(NC(=O)CN2C(=O)NC3(CCCCCCC3)C2=O)c1 | 2.51 µM [rising, full curve, poor fit]
Clc1ccc(OCc2nn3c(C4CCCCC4)nnc3s2)c(Cl)c1 | 0.631 µM [rising, full curve, poor fit]
O=C(C1CCN(S(=O)(=O)N2CCC3(CC2)OCCO3)CC1)N1CCOCC1 | 0.0631 µM [falling, partial curve, poor fit]
COc1ccccc1OCCSc1nc2ccccc2c(=O)[nH]1 | 10 µM [rising, partial curve]
CCn1cc(C(=O)NC2CCCCC2C)c(=O)c2ccc(C)nc21 (configuration not stated) | 3.98 µM [rising, full curve]
CCOc1ccccc1NC(=O)CCN1CCN(S(=O)(=O)c2ccc(OC)cc2)CC1 | 0.501 µM [rising, full curve, poor fit]
COc1ccccc1C(=O)Nc1nc2ccc(S(C)(=O)=O)cc2s1 | 3.98 µM [rising, partial curve]
Cn1cc(-c2nc3cnc(N4CCOCC4)nc3n(CCC#N)c2=O)c2ccccc21 | 6.31 µM [rising, partial curve]
Cc1cc2nnc(SCC(=O)NCc3ccco3)n2c2ccccc12 | 12.6 µM [rising, partial curve]
O=C(NCCN1CCN(C(=O)NC2CCCCC2)CC1)NC1CCCCC1 | 5.01 µM [falling, partial curve]
COCc1cc(=O)n2[nH]c(C)cc2n1 | 0.00316 µM [falling, full curve, poor fit]
Cc1cc2nnc(SC3CCOC3=O)n2c2ccccc12 (configuration not stated) | 10 µM [rising, single point]
CC(O)CCc1nc2ccc(C(=O)O)cc2[nH]1 (configuration not stated) | 25.1 µM [rising, single point]
CC(C)Oc1cccc(C(=O)Nc2ccccc2N2CCOCC2)c1 | 12.6 µM [rising, partial curve]
Cc1nc2nc(Cc3ccccc3)nn2c(C)c1Cl | 7.94 µM [rising, partial curve]
C[C@H](NC(=O)/C(C#N)=C/c1ccc(O)c(O)c1)c1ccccc1 | 31.6 µM [rising, partial curve]
Cc1cnc(CNc2nc(-c3cccc(NS(C)(=O)=O)c3)nc3ccccc23)cn1 | 12.6 µM [rising, partial curve]

4 records picked at random from the list so far, as already listed:
SMILES | AC50
CCC(=O)N1c2ccc(S(=O)(=O)CCC(=O)Nc3nccs3)cc2CC1C (configuration not stated) | 0.1 µM [falling, full curve, poor fit]
COCc1cc(=O)n2[nH]c(C)cc2n1 | 0.00316 µM [falling, full curve, poor fit]
O=C(NCCN1CCN(C(=O)NC2CCCCC2)CC1)NC1CCCCC1 | 5.01 µM [falling, partial curve]
CC(C)Oc1cccc(C(=O)Nc2ccccc2N2CCOCC2)c1 | 12.6 µM [rising, partial curve]

More structures follow:

SMILES | AC50
CC1SC(=NC(=O)c2ccco2)NC1=O (configuration not stated) | 0.631 µM [rising, single point]
CCc1ccc2[nH]c(=O)c(CN(CCN3CCOCC3)C(=O)Nc3ccccc3F)cc2c1 | 10 µM [rising, partial curve]
COc1ccc(NC(=O)Cc2cccs2)c(OC)c1 | 0.794 µM [falling, full curve, poor fit]
COC(=O)c1ccccc1NC(=O)Cn1cnc2cc(C)c(C)cc21 | 0.00316 µM [falling, full curve, poor fit]
Cc1cc(NC(=O)CSc2nnc(C3CC3)n2C)no1 | 20 µM [falling, single point]
N#CCSc1nc2c(c(C3CC=CCC3)c1C#N)CCC2 (configuration not stated) | 5.01 µM [rising, full curve, poor fit]
Cn1cc(-c2nc3cnc(OCc4ccccc4)nc3n(CCC#N)c2=O)c2ccccc21 | 10 µM [rising, partial curve]
COc1ccc(-c2coc3cc(O)cc(O)c3c2=O)cc1 | 0.158 µM [rising, full curve, poor fit]
CCOC(=O)N1CCN(C(=O)c2ccc(NC(=O)c3ccc(C)cc3)cc2)CC1 | 5.01 µM [falling, partial curve]
CCC(=O)/C=C1\Sc2ccc(OC)cc2N1CC | 0.398 µM [rising, full curve, poor fit]
C=CCNc1ncnc2c1cnn2-c1ccc(Cl)cc1 | 5.01 µM [rising, partial curve]
COc1ccccc1N1CCN(CCN2C(=O)CC3(CCCC3)CC2=O)CC1 | 1.58 µM [rising, partial curve, poor fit]
CN1CCN(c2ncc3nc(-c4cccc(C#N)c4)c(=O)n(CCc4ccccc4)c3n2)CC1 | 10 µM [rising, partial curve]
Cc1cc(-c2nnc(-c3cc4ccccc4oc3=O)o2)c(C)n1-c1ccccc1 | 10 µM [rising, partial curve]
CCOCCn1c(N2CCN(c3ccc(OC)cc3)CC2)nc2c1c(=O)n(C)c(=O)n2C | 12.6 µM [rising, single point]
Cc1ccc2cc3cc(C(=O)N(C)C4CCCCC4)oc3nc2c1 | 0.1 µM [rising, full curve]
CN(Cc1ccco1)c1cc(-c2cccnc2)ncn1 | 0.316 µM [rising, full curve, poor fit]
Nc1ccc2c(C(F)(F)F)cc(=O)oc2c1 | 12.6 µM [rising, partial curve]
O=C(CN(Cc1ccco1)C(=O)CNS(=O)(=O)c1ccccc1)NCc1ccccc1 | 25.1 µM [falling, single point]
O=c1c(-c2cccs2)nc2cnc(N3CCOCC3)nc2n1Cc1cccs1 | 10 µM [rising, partial curve]
COc1cc2nc(C)sc2cc1SC | 5.01 µM [rising, full curve, poor fit]
